Experiments:
non-reduced Trastuzumab = test: Control reaction with non-reduced antibody, SDS-PAGE and intact-protein MS; settings: for modification of non-reduced antibody: antibody not reduced prior to the reaction
HEK293-cell lysate = test: Proteome-wide cysteine profiling, LC-MS/MS
[1] = general procedure: Fmoc solid-phase peptide synthesis; Rink amide resin, loading 0.78 mmol/g; HCTU/Oxyma/DIPEA; settings: conjugation step
[2] = 1 mg/ml lysate, three independent replicates, MS Amanda search

Molecule | modification of non-reduced antibody (non-reduced Trastuzumab) | conjugation yield [1] [%] | further results
C#CP(=O)(/C=C/SCCC(=O)NCCNc1cccc2c(S(=O)(=O)O)cccc12)OCC (stereo not drawn) [CS265, EDANS-ethyl-thiovinyl-ethynylphosphinate] | no modification could be observed |  | 
C#CP(=O)(OCC)c1cn(CCC(=O)NCCNc2cccc3c(S(=O)(=O)O)cccc23)nn1 (stereo not drawn) [CS266, EDANS-1,2,3-triazol-ethyl-ethynylphosphinate] | no modification could be observed |  | labelling of non-reduced antibody with 100 eq. (non-reduced Trastuzumab; 100 eq., 16 h, without reducing agent, intact-protein MS): No labelling
C#CP(=O)(OCC)c1cn(CCCNC(=O)CCCCCC2NC(=O)NC2C)nn1 (stereo not drawn) [CS418, Desthiobiotin-1,2,3-triazol-ethyl-ethynylphosphinate] |  |  | unique cysteine sites at lower proteomic input (HEK293-cell lysate; 0.1 mg/ml lysate, 50 μg total): 7023; proteins with labeled cysteine sites (HEK293-cell lysate; [2]): 3978; unique labeled cysteine sites (HEK293-cell lysate; [2]): 8661
C#CP(=O)(C#C)OCC [compound 1, ethyl diethynyl phosphinate] | no rebridging or modification could be observed |  | 
(PEG4-Val-Cit-PAB-MMAE)-triazolyl diethynyl phosphinoxide |  | 16 | 
(PEG4-Val-Cit-PAB-MMAE)-triazolyl-mPEG4-ethynyl phosphinate |  | 59 | 
